From paper PMC7778541

T1: Deltex3 (human (endogenous in PTC cells)) (UniProt Q8N9I9)
T1 sequence: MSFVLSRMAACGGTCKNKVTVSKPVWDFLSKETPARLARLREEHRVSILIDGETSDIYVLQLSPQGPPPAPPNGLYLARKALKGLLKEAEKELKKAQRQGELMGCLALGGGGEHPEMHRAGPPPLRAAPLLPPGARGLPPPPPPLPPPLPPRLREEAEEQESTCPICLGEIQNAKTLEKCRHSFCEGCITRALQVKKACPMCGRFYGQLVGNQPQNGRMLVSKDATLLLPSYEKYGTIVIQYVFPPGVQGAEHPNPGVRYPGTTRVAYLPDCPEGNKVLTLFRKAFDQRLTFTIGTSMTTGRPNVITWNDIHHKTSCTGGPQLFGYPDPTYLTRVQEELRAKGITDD


Molecular target: T1, Deltex3 (human (endogenous in PTC cells))
Assay: affinity purification with mass spectrometry; IP-MS: cell lysate in IP lysis buffer, anti-DTX3 antibody or normal IgG overnight at 4 °C, Protein A/G PLUS-Agarose beads, 4 washes, eluted in SDT buffer for MS

Row | binding | Binder
1 | binds | PDZ domain-containing protein 8 (protein, UniProt Q8NEN9 1-1154) MGLLLMILASAVLGSFLTLLAQFFLLYRRQPEPPADEAARAGEGFRYIKPVPGLLLREYLYGGGRDEEPSGAAPEGGATPTAAPETPAPPTRETCYFLNATILFLFRELRDTALTRRWVTKKIKVEFEELLQTKTAGRLLEGLSLRDVFLGETVPFIKTIRLVRPVVPSATGEPDGPEGEALPAACPEELAFEAEVEYNGGFHLAIDVDLVFGKSAYLFVKLSRVVGRLRLVFTRVPFTHWFFSFVEDPLIDFEVRSQFEGRPMPQLTSIIVNQLKKIIKRKHTLPNYKIRFKPFFPYQTLQGFEEDEEHIHIQQWALTEGRLKVTLLECSRLLIFGSYDREANVHCTLELSSSVWEEKQRSSIKTVELIKGNLQSVGLTLRLVQSTDGYAGHVIIETVAPNSPAAIADLQRGDRLIAIGGVKITSTLQVLKLIKQAGDRVLVYYERPVGQSNQGAVLQDNFGQLEENFLSSSCQSGYEEEAAGLTVDTESRELDSEFEDLASDVRAQNEFKDEAQSLSHSPKRVPTTLSIKPLGAISPVLNRKLAVGSHPLPPKIQSKDGNKPPPLKTSEITDPAQVSKPTQGSAFKPPVPPRPQAKVPLPSADAPNQAEPDVLVEKPEKVVPPPLVDKSAEKQAKNVDAIDDAAAPKQFLAKQEVAKDVTSETSCPTKDSSDDRQTWESSEILYRNKLGKWTRTRASCLFDIEACHRYLNIALWCRDPFKLGGLICLGHVSLKLEDVALGCLATSNTEYLSKLRLEAPSPKAIVTRTALRNLSMQKGFNDKFCYGDITIHFKYLKEGESDHHVVTNVEKEKEPHLVEEVSVLPKEEQFVGQMGLTENKHSFQDTQFQNPTWCDYCKKKVWTKAASQCMFCAYVCHKKCQEKCLAETSVCGATDRRIDRTLKNLRLEGQETLLGLPPRVDAEASKSVNKTTGLTRHIINTSSRLLNLRQVSKTRLSEPGTDLVEPSPKHTPNTSDNEGSDTEVCGPNSPSKRGNSTGIKLVRKEGGLDDSVFIAVKEIGRDLYRGLPTEERIQKLEFMLDKLQNEIDQELEHNNSLVREEKETTDTRKKSLLSAALAKSGERLQALTLLMIHYRAGIEDIETLESLSLDQHSKKISKYTDDTEEDLDNEISQLIDSQPFSSISDDLFGPSESV
2 | binds | Inter-alpha-trypsin inhibitor heavy chain H2 (protein, UniProt P19823 55-702) SLPGESEEMMEEVDQVTLYSYKVQSTITSRMATTMIQSKVVNNSPQPQNVVFDVQIPKGAFISNFSMTVDGKTFRSSIKEKTVGRALYAQARAKGKTAGLVRSSALDMENFRTEVNVLPGAKVQFELHYQEVKWRKLGSYEHRIYLQPGRLAKHLEVDVWVIEPQGLRFLHVPDTFEGHFDGVPVISKGQQKAHVSFKPTVAQQRICPNCRETAVDGELVVLYDVKREEKAGELEVFNGYFVHFFAPDNLDPIPKNILFVIDVSGSMWGVKMKQTVEAMKTILDDLRAEDHFSVIDFNQNIRTWRNDLISATKTQVADAKRYIEKIQPSGGTNINEALLRAIFILNEANNLGLLDPNSVSLIILVSDGDPTVGELKLSKIQKNVKENIQDNISLFSLGMGFDVDYDFLKRLSNENHGIAQRIYGNQDTSSQLKKFYNQVSTPLLRNVQFNYPHTSVTDVTQNNFHNYFGGSEIVVAGKFDPAKLDQIESVITATSANTQLVLETLAQMDDLQDFLSKDKHADPDFTRKLWAYLTINQLLAERSLAPTAAAKRRITRSILQMSLDHHIVTPLTSLVIENEAGDERMLADAPPQDPSCCSGALYYGSKVVPDSTPSWANPSPTPVISMLAQGSQVLESTPPPHVMRVEND

These are yes or no findings as the source states them, for the method shown. In cells and extracts the contact can be indirect. A yes stands for co-enrichment or nearness to the bait. Other partners may have been found.
